Values quoted from earlier work, collected in patent US20060039865A1, “Pharmaceutical compositions and methods for the prevention of drug misuse” (priority 2004, published 2006).

Details: list of urine indicators given by way of example, suffixes (H), (OS), (AC), (AL) not explained

Row | Compound | COLOR (urine color caused by the indicator) | COLOR (urine color caused by the indicator) (listed as Phenazopyridine(AC))
1 | CCOc1ccc(/N=N/c2ccc(N)cc2N)cc1 [Ethoxazene] | orange, red, orange-red, pink | 
2 | Cc1cc(-c2ccc(/N=N/c3ccc4c(S(=O)(=O)O)cc(S(=O)(=O)O)c(N)c4c3O)c(C)c2)ccc1/N=N/c1ccc2c(S(=O)(=O)O)cc(S(=O)(=O)O)c(N)c2c1O [Evans blue] | blue | 
3 | CN(C)c1ccc2nc3ccc(=[N+](C)C)cc-3sc2c1 [Methylene blue] | blue, green, blue-green, yellow-brown, | 
4 | Nc1ccc(/N=N/c2ccccc2)c(N)n1 [Phenazopyridine] | orange | orange-red, red, orange
5 | O=C1OC(c2ccc(O)cc2)(c2ccc(O)cc2)c2ccccc21 [Phenolphthalein(AL), Phenolphthalein] | pink, red, red-brown | 
6 | O=S1(=O)OC(c2ccc(O)cc2)(c2ccc(O)cc2)c2ccccc21 [Phenolsulfonphthalein(AL), Phenolsulfonphthalein] | red, red-purple | 
7 | Eosin dyes [Eosin dyes(H)] | brown, red, pink | 
8 | Ferrous salts | black, dark | 
9 | Melanin [Melanin(OS)] | black, dark | 

Read-outs that look alike come from different tables or passages of the source.
